Data as given in PubChem BioAssay AID743121 (NCATS, 2013)
Assay: 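Knock-downs that sensitise breast cancer cells to camptothecin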 (primary screen). Cells: MDA-MB-231 cells, a human breast cancer line. Knock-down reagent: single siRNA against human genes, 20 nM siRNA (0.8 pmol per well). Duration: 120 h (drug added 48 h after transfection, read 72 h later). Conditions: camptothecin 20 nM (about EC30) for 72 h; vehicle 0.1% DMSO in parallel plates. Read-out: 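Cell viability by ATP luminescence (CellTiter-Glo) as % of non-targeting siRNA wells, and the log2 ratio of viability without drug over viability with camptothecin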. Direction: log2 vehicle/camptothecin viability: higher = stronger sensitisation to camptothecin. Call rule: 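Active genes have an RSA gene-level p-value below 0.001, computed from the ratios of their separate siRNAs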.
In all, the deposit lists about 26,000 reagents; shown is a part drawn at random. Of all reagents, 167 (0.63%) got an active call. 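Calls are per gene from RSA p-values that are not deposited; an individual active-marked siRNA can sensitise only weakly.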 Entries without a mark were called inactive. Reagents against one gene are numbered here. Not all columns of the deposit are shown.

| Target gene | siRNA no. | log2 vehicle/camptothecin viability |
| --- | --- | --- |
| RUNX1 | 1 | -0.0733 |
| RUNX1 | 2 | 0.624 |
| RUNX1 | 3 | 0.272 |
| RUNX1 | 4 | 0.0381 |
| EMX1 | 1 | -0.313 |
| EMX1 | 2 | -0.148 |
| EMX1 | 3 | 0.0463 |
| EMX1 | 4 | -0.0937 |
| CLCN6 | 1 | 0.0547 |
| CLCN6 | 2 | -0.0285 |
| CLCN6 | 3 | -0.0518 |
| CLCN6 | 4 | -0.295 |
| FKBP14 | 1 | -0.463 |
| FKBP14 | 2 | -0.161 |
| FKBP14 | 3 | -0.353 |
| FKBP14 | 4 | -0.0764 |
| SLA | 1 | -0.276 |
| SLA | 2 | -0.0682 |
| SLA | 3 | -0.148 |
| SLA | 4 | -0.159 |
| RAB22A | 1 | -0.0265 |
| RAB22A | 2 | -0.118 |
| RAB22A | 3 | -0.478 |
| RAB22A | 4 | -0.363 |
| ARSL | 1 | 0.182 |
| ARSL | 2 | 0.0979 |
| ARSL | 3 | 0.00304 |
| ARSL | 4 | -0.0422 |
| GPX7 | 1 | -0.166 |
| GPX7 | 2 | -0.0703 |
| GPX7 | 3 | 0.513 |
| DYRK4 | 1 | -0.423 |
| DYRK4 | 2 | -0.185 |
| DYRK4 | 3 | 0.182 |
| DYRK4 | 4 | -0.419 |
| TRAF3 | 1 | 0.264 |
| TRAF3 | 2 | 0.0644 |
| TRAF3 | 3 | -0.261 |
| TRAF3 | 4 | -0.425 |
| PAX3 | 1 | -0.216 |
| PAX3 | 2 | -0.386 |
| PAX3 | 3 | 0.106 |
| PAX3 | 4 | -0.502 |
| PMS2P5 | 1 | -0.196 |
| PMS2P5 | 2 | -0.117 |
| INPP1 | 1 | -0.33 |
| INPP1 | 2 | -0.121 |
| INPP1 | 3 | -0.0156 |
| INPP1 | 4 | -0.159 |

Laid out differently: 5 of the entries above
PMS2P5 #2
- log2 vehicle/camptothecin viability: -0.117

INPP1 #1
- log2 vehicle/camptothecin viability: -0.33

INPP1 #2
- log2 vehicle/camptothecin viability: -0.121

INPP1 #3
- log2 vehicle/camptothecin viability: -0.0156

INPP1 #4
- log2 vehicle/camptothecin viability: -0.159
